# Experimental data taken from publication doi:10.1101/2024.12.26.630380.
# Sequences of proteins named here, by UniProt entry; tags and fusion partners are left off. A change or cut given only in a name is not applied to a line headed by its entry.
# UniProt C3W947: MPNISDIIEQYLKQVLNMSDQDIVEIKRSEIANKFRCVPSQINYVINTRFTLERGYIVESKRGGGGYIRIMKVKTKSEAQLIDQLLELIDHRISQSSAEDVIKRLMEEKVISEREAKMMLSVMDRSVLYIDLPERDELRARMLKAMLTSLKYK
# Biological target: pCtsR (CtsR pre-phosphorylated by pMcsB) (UniProt C3W947)
# Test: EMSA
# Settings: CtsR phosphorylated by pMcsB and ATP before DNA addition
sequence,measurement,value
GATTAAGGTCAAATATAGTCAAAATA (double strand) [unlabeled cognate DNA (26bp DNA presumed)],binding result,no binding

# The exact form of at least one protein or probe is not confirmed. A negative result means that nothing was seen under these conditions. At least one verdict was read from the data and is not stated in words by the source.
